Experiment: general procedure: Boc solid-phase peptide synthesis; PAM resin; BOP/DIEA; cyclisation with TBTU/HOBt/DIEA
Settings: cyclisation step, on linear precursor

Substance: cyclo[-(L-Phe-D-^Me NAla)4-] (FAFAFAFA; cyclic; N-methyl D-alanines; artificial sequence, peptide tube incorporating D-amino acids, the peptide is a cyclic peptide)
- cyclisation yield: 70%

Source: patent publication US6613875B1 (The Scripps Research Institute, priority 1993, dated 2003)
